Some of the results follow. Most entries show no effect beyond the scatter of the controls.
Compound: CN[C@@H]1C[C@H]2O[C@@](C)([C@@H]1OC)n1c3ccccc3c3c4c(c5c6ccccc6n2c5c31)C(=O)NC4 [staurosporine]
Assay: log2 fold change of tryptic peptide abundance, ligand vs vehicle (limited proteolysis) (log2 ratio); higher = more trypsin-susceptible (destabilized)
Conditions: ligand concentration: 20 uM; sample: mouse liver crude lysate; replicate design: treated separately

Sequences of proteins named here, by UniProt entry; tags and fusion partners are left off. A change or cut given only in a name is not applied to a line headed by its entry.
UniProt Q80UU9: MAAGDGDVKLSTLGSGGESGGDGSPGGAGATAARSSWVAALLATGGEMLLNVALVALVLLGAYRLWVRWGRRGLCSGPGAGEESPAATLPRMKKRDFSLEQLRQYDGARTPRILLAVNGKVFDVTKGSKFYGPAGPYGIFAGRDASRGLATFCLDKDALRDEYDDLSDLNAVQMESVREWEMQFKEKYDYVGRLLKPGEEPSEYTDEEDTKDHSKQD
UniProt Q7M6Y3: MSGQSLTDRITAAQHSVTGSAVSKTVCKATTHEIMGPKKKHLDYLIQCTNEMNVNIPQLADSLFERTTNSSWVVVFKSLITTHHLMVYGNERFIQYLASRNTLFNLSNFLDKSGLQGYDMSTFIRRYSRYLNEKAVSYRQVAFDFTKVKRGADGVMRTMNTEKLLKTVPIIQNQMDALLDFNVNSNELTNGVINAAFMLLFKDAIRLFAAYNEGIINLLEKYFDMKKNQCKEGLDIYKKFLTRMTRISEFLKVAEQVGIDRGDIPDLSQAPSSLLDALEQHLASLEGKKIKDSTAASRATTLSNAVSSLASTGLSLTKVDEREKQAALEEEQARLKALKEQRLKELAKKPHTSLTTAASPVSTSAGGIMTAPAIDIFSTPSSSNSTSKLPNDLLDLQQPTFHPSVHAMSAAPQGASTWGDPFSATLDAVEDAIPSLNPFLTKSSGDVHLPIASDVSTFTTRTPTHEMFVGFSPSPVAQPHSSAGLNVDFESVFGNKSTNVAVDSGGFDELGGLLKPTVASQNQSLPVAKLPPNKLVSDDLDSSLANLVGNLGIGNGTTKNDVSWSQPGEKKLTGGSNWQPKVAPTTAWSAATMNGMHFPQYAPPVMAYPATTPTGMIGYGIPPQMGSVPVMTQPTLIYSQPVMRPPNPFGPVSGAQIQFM
UniProt Q78IK4: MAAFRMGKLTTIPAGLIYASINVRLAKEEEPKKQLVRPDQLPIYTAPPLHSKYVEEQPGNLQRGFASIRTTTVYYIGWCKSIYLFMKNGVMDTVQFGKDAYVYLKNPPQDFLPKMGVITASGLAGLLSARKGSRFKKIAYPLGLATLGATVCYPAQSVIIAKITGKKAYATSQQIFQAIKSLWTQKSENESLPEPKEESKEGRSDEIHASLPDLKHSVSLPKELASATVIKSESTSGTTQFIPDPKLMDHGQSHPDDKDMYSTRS
UniProt Q7TPN9: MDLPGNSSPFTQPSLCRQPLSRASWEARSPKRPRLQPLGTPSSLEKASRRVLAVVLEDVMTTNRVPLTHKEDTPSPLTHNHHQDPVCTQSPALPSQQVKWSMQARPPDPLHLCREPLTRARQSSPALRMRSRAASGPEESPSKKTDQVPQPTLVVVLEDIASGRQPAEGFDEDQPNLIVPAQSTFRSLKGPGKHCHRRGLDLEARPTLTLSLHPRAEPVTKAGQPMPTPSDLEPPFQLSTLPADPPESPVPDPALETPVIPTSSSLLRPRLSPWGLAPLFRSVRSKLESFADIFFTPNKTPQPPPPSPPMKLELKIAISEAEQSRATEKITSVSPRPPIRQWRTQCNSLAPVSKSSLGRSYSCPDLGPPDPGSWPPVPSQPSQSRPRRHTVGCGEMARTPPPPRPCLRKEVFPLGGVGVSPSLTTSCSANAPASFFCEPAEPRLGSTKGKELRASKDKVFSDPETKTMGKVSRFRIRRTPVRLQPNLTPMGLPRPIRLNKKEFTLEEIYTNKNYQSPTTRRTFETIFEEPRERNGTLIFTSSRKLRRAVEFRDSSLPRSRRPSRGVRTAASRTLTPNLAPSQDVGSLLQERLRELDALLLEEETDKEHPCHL
UniProt Q6WKZ7: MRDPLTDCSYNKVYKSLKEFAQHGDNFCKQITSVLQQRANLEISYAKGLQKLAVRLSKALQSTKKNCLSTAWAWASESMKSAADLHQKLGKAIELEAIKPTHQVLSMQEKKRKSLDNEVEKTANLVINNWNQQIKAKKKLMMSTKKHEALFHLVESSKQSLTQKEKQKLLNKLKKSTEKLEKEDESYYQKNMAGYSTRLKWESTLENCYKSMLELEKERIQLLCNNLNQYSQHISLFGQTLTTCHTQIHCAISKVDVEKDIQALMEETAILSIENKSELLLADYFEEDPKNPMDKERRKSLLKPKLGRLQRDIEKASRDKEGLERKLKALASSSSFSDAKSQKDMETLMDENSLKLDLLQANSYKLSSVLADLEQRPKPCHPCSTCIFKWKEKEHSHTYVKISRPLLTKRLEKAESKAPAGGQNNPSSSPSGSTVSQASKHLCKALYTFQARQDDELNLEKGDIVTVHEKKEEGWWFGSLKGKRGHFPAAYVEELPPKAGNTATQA
UniProt Q75N73: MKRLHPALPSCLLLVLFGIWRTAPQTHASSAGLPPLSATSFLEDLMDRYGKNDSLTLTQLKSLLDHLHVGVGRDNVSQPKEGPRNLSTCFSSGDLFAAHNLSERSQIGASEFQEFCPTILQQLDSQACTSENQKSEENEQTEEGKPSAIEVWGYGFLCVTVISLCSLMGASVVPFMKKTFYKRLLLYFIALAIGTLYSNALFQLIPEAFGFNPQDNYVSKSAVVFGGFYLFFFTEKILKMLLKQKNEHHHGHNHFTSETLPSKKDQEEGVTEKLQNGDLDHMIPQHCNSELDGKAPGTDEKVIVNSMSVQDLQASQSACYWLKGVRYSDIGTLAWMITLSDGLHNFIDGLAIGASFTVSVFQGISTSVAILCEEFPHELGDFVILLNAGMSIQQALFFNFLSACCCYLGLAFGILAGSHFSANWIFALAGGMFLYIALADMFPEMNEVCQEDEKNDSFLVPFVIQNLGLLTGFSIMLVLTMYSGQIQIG
UniProt Q80VC9: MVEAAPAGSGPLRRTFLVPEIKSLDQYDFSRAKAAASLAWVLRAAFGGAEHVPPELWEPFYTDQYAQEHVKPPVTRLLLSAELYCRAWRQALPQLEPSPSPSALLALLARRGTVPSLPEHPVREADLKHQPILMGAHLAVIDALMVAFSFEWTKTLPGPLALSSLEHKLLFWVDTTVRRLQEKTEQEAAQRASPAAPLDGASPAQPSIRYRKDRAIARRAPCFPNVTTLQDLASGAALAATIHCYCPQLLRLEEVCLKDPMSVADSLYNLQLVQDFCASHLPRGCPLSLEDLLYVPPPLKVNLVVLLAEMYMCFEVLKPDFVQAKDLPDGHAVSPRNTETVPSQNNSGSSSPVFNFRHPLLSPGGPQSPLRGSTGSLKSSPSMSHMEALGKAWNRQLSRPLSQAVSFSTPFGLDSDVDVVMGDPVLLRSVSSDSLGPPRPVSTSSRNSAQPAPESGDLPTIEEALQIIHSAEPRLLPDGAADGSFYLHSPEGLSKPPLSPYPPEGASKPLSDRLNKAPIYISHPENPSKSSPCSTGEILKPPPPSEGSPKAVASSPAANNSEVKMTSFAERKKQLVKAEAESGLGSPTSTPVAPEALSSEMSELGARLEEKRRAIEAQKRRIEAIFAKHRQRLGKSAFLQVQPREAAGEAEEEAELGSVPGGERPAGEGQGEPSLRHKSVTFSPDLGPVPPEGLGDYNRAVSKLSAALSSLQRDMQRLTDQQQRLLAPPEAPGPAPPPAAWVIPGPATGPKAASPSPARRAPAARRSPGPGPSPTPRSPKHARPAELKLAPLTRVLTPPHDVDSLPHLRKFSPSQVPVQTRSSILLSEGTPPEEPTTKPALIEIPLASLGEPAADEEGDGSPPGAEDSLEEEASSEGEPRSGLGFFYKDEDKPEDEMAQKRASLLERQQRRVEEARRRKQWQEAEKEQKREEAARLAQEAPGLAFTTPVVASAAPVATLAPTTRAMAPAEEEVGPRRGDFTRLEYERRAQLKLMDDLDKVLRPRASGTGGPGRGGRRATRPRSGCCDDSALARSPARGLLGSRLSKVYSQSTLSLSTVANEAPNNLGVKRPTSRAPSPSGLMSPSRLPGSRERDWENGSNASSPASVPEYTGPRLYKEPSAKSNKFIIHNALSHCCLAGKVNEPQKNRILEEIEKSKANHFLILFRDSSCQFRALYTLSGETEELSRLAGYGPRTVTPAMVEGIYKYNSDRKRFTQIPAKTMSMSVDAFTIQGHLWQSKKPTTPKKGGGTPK
UniProt Q7SIG6: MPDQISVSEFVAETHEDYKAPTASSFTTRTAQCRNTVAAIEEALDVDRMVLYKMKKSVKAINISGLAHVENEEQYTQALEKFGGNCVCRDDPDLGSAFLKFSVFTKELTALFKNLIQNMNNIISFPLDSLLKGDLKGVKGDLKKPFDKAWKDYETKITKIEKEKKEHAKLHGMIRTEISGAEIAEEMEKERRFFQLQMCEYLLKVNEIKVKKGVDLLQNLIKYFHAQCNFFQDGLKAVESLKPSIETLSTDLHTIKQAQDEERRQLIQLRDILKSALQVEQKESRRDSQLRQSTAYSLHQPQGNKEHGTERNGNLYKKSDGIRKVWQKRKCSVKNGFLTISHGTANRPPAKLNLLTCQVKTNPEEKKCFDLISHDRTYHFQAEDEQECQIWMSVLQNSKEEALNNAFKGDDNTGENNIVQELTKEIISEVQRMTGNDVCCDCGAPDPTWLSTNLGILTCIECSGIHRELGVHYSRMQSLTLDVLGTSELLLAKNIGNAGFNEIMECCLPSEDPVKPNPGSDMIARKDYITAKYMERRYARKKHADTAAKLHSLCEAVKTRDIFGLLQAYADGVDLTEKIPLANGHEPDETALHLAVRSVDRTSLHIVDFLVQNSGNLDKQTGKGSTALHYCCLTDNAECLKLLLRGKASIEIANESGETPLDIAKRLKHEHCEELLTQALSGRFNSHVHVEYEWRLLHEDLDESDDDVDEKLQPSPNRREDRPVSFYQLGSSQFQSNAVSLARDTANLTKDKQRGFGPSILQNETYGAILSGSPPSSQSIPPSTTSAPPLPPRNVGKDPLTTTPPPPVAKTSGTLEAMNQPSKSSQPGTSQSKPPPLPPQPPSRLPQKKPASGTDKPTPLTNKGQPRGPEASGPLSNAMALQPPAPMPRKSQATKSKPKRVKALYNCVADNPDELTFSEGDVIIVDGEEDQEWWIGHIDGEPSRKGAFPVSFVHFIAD
UniProt Q7TQC5: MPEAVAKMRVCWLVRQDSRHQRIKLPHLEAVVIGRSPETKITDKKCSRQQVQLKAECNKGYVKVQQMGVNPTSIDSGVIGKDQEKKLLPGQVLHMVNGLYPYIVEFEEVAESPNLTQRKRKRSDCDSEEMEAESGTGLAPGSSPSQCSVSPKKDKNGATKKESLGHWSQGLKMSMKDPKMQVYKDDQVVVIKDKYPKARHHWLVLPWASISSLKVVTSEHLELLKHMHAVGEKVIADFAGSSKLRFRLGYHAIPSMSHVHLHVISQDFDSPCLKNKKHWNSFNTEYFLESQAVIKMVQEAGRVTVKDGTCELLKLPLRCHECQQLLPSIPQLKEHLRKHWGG
UniProt Q7TQK5, whole entry: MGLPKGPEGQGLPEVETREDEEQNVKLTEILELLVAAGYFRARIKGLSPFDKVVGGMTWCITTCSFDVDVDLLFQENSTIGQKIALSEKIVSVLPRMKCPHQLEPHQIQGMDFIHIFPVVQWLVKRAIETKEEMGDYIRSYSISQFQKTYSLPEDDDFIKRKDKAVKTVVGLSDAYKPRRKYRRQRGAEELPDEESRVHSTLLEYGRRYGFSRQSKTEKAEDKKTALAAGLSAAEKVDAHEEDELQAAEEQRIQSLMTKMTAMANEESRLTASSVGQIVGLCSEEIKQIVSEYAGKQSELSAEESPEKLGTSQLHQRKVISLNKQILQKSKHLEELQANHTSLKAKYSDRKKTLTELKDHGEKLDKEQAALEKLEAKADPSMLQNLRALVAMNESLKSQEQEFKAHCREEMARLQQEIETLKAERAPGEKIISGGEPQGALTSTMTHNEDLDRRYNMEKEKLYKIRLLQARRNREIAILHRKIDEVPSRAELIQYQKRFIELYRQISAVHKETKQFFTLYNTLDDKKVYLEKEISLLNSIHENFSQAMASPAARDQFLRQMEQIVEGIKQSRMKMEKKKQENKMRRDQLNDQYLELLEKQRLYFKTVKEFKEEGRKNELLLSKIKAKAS
UniProt Q6ZPU9: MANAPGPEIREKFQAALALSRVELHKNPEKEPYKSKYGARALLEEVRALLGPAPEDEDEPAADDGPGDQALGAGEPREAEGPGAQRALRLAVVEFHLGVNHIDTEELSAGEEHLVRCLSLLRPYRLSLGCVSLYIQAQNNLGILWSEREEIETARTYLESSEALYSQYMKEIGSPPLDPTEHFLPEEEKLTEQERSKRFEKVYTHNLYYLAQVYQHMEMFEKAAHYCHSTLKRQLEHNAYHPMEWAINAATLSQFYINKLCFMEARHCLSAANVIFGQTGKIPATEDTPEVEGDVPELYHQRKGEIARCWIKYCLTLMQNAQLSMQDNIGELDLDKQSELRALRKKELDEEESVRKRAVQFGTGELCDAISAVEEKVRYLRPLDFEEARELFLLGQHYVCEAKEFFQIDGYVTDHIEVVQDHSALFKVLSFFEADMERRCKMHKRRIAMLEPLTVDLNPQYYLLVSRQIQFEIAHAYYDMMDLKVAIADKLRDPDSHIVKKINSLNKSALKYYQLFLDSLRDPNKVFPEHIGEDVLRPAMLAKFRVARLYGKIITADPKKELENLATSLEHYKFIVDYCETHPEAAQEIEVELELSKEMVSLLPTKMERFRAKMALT

For “UniProt Q6Y685 (peptide sequence: TIAQMIEDEQR, peptide start residue: 617)”, the log2 fold change was -0.171.

Target “UniProt Q6ZPK0 (peptide sequence: VTGPGAEAVQIVAK, peptide start residue: 194)” has a log2 fold change of -0.258.

“UniProt Q80U72 (peptide sequence: AGTLQVGDR, peptide start residue: 892)” was tested, and the log2 fold change was -0.178.

“UniProt Q80UU9 (peptide sequence: EKYDYVGR, peptide start residue: 186)” gave a log2 fold change of -0.0802.

“UniProt Q80VH0 (peptide sequence: SQNWNDLNARPETR, peptide start residue: 541)” gave a log2 fold change of -0.262.

Target “UniProt Q71KT5 (peptide sequence: KNPSDPSVAGLETIPTATGR, peptide start residue: 316)” has a log2 fold change of 0.232.

“UniProt Q78JT3 (peptide sequence: ELPFPLNTR, peptide start residue: 167)” showed a log2 fold change of 0.118.

Target “UniProt Q6ZQK5 (peptide sequence: SLGVHFSK, peptide start residue: 443)” has a log2 fold change of 0.132.

“UniProt Q7TSI1 (peptide sequence: AALHGPFSQGPR, peptide start residue: 476)” was tested, and the log2 fold change was 0.387.

In the case of “UniProt Q6ZPY5 (peptide sequence: GKPLLTSSEER, peptide start residue: 827)”, the log2 fold change is reported as 0.18.

“UniProt Q80TF4 (peptide sequence: TAVDTVFR, peptide start residue: 364)” showed a log2 fold change of 0.207.

“UniProt Q7M6Y3 (peptide sequence: SLITTHHLMVYGNER, peptide start residue: 78)” gave a log2 fold change of -0.364.

In the case of “UniProt Q78IK4 (peptide sequence: LMDHGQSHPDDKDMYSTR, peptide start residue: 247)”, the log2 fold change is reported as -0.0999.

With “UniProt Q7TPN9 (peptide sequence: HTVGCGEMAR, peptide start residue: 389)” the log2 fold change was 0.501.

For “UniProt Q7TT16 (peptide sequence: LLGGCVPLSHQVAGHMYGK, peptide start residue: 25)”, the log2 fold change was 0.407.

“UniProt Q80U49 (peptide sequence: DRPGVSVR, peptide start residue: 444)” was tested, and the log2 fold change was -0.271.

Work on “UniProt Q6WKZ7 (peptide sequence: STEKLEKEDESYYQK, peptide start residue: 176)” yielded a log2 fold change of -0.39.

“UniProt Q75N73 (peptide sequence: DQEEGVTEK, peptide start residue: 265)” was tested, and the log2 fold change was -0.171.

“UniProt Q80VC9 (peptide sequence: SVSSDSLGPPRPVSTSSR, peptide start residue: 429)” gave a log2 fold change of -0.129.

“UniProt Q6ZQ12 (peptide sequence: ELYVENAHLMK, peptide start residue: 1344)” showed a log2 fold change of 0.0337.

With “UniProt Q7SIG6 (peptide sequence: AVESLKPSIETLSTDLHTIK, peptide start residue: 237)” the log2 fold change was -0.59.

“UniProt Q78KK3 (peptide sequence: EASVQSAPQGGTK, peptide start residue: 192)” was tested, and the log2 fold change was 0.256.

“UniProt Q7TMI3 (peptide sequence: VQVSEAGVHRPHVGGIHGR, peptide start residue: 464)” gave a log2 fold change of -0.333.

For “UniProt Q71KU9 (peptide sequence: CHSANLNGVYYR, peptide start residue: 263)”, the log2 fold change was 0.469.

For “UniProt Q7TQC5 (peptide sequence: VQQMGVNPTSIDSGVIGKDQEKK, peptide start residue: 64)”, the log2 fold change was -0.74.

Work on “UniProt Q7TMY7 (peptide sequence: YGSPGNVTK, peptide start residue: 276)” yielded a log2 fold change of 0.683.

“UniProt Q80TY5 (peptide sequence: QNNLLTVQLK, peptide start residue: 3894)” was tested, and the log2 fold change was 0.628.

In the case of “UniProt Q7TSZ8 (peptide sequence: VKTEQELDSVQCTPMAK, peptide start residue: 166)”, the log2 fold change is reported as -0.272.

In the case of “UniProt Q7TQK5 (peptide sequence: KIDEVPSRAELIQYQK, peptide start residue: 482)”, the log2 fold change is reported as -0.212.

“UniProt Q6ZPU9 (peptide sequence: KGEIARCWIK, peptide start residue: 303)” gave a log2 fold change of 0.317.

— the supplement of paper PMC12819154, “High-throughput peptide-centric local stability assay extends protein–ligand identification to membrane proteins, tissues and bacteria” (Nature Structural & Molecular Biology, 2025)
